Source: patent US20260083725A1, “SIGMARI LIGAND FOR THE TREATMENT OF PANCREATIC CANCER” (INSTITUT NATIONAL DE LA SANTÉ ET DE LA RECHERCHE MÉDICALE, priority 2022, published 2026)
Results are given in words; binding and its absence hold for the method and conditions named. Binding seen in cells or lysates may run through a third protein. Some results given as binding are weak or reduced against the parent protein; the word gives no strength.

The chains behind the UniProt entries cited, without tags or fusion partners.
UniProt P05556: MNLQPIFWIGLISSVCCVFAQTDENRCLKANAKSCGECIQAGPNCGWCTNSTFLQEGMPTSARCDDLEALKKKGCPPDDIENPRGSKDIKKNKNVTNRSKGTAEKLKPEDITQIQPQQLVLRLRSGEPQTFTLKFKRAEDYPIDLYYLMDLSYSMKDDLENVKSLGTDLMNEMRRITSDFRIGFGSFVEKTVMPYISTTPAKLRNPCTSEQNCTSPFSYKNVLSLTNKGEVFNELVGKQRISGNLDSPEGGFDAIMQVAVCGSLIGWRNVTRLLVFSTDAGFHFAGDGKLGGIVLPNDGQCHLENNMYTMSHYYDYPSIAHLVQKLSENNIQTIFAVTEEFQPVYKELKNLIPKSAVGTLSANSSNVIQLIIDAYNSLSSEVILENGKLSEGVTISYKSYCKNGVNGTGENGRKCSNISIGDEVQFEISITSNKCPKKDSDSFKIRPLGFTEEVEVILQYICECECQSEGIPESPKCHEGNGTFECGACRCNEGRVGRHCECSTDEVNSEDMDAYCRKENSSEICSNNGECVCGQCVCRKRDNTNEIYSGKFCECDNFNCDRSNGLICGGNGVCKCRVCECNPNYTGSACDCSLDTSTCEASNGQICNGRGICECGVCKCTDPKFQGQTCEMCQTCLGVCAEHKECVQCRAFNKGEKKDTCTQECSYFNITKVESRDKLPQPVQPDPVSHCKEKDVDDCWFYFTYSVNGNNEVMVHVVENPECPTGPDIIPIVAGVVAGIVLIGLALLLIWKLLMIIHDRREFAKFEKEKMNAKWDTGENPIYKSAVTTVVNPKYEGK

What was measured:
β1 integrin subunit [1] = target: β1 integrin subunit (UniProt P05556); assay: in situ proximity ligation assay in PANC-1 cells (restated in the discussion)
β1 integrin subunit [2] = target: β1 integrin subunit (UniProt P05556); assay: in situ proximity ligation assay in PANC-1 cells; promoted by CAF-CM, required Sig-1R

Question: How did the binding (β1 integrin subunit [1]) turn out when “SK2 K+ channel (from UniProt Q9H2S1 1-579)” was run?
Answer: The binding was “binds”.

Question: And the binding (β1 integrin subunit [2])?
Answer: Its binding is “binds”.
